For this assay, the target named is T1, AQP2 protein (UniProt P41181 1-271, limits assumed).
T1 construct: also called protein AQP2
T1 sequence (looked up): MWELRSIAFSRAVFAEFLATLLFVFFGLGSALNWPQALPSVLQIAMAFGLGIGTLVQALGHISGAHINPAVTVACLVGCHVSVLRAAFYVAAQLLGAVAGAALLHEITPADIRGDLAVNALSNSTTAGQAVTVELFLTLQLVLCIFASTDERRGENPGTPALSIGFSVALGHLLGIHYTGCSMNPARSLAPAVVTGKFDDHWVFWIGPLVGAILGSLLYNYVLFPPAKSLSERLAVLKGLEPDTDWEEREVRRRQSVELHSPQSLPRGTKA
The experiment in a line: microscale thermophoresis (MST). For orientation: MST reads how a fluorescent partner responds to local heating, with and without ligand.

Results are given in words; binding and its absence hold for the method and conditions named. Some entries that bind do so weakly or less than the wild type.

B1: HMMW-8A (peptide)
peptide: MERAGVPAFSPRRSSVEAKMQSTSCSVRKSSTVTAWPAVVLLLSWGQRRGG
notes: Alanine mutant of HMMW at position 8; solid-phase synthesis
On to B1, for which the binding entry is reported as “binds”.

B2: HMMW-48A (peptide)
peptide: MERAGVPGFSPRRSSVEAKMQSTSCSVRKSSTVTAWPAVVLLLSWGQARGG
notes: Alanine mutant of HMMW at position 48; solid-phase synthesis
In the case of B2, the binding entry is recorded as “binds”.

B3: HMMW-49A (peptide)
peptide: MERAGVPGFSPRRSSVEAKMQSTSCSVRKSSTVTAWPAVVLLLSWGQRAGG
notes: Alanine mutant of HMMW at position 49; solid-phase synthesis
Regarding B3, the binding result is “binds”.

The values are drawn from patent US20260167673A1, “NOVEL POLYPEPTIDE, POLYPEPTIDE DERIVATIVE AND USE THEREOF” (NANJING ANJI BIOTECHNOLOGY CO., LTD., priority 2023, published 2026).
